The record followed here is paper PMC12518634, “The noncanonical function of liver-type phosphofructokinase potentiates the efficacy of HDAC inhibitors in cancer” (Signal Transduction and Targeted Therapy, 2025).

The chains behind the UniProt entries cited, without tags or fusion partners. Where a name states a change or a piece, a line headed by the entry shows the natural chain unless it says otherwise. A line that says so, or that is headed by a name, gives the form on record, which may keep a tag or linker. Residues count along the entry.
UniProt Q13547: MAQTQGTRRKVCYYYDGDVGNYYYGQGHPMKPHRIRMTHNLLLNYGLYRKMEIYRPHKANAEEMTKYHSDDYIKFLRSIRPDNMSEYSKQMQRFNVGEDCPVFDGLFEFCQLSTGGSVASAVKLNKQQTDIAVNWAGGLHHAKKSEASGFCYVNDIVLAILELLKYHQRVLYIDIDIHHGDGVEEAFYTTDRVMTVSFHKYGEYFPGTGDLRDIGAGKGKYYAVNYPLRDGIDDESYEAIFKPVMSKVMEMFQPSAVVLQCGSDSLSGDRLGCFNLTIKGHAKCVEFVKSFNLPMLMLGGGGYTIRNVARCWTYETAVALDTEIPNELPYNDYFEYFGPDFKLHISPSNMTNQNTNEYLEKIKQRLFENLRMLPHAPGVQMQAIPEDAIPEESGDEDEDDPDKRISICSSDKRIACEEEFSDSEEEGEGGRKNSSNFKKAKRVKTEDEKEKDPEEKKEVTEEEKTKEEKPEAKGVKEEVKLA
Flag-tagged truncated HDAC1, H1 region (aa 1-321): residues 1-321 of Q13547
Flag-tagged truncated HDAC1, H4 region (aa 170-321): residues 170-321 of Q13547
Flag-tagged truncated HDAC1, H5 region (aa 183-321): residues 183-321 of Q13547

The target in test [1] is Flag-tagged HDAC1, full length, wild type (human) (UniProt Q13547). The test is described as follows: co-IP; MYC-tagged PFKL and Flag-tagged HDAC1 (full length, truncated or mutant) co-transfected in HEK293T cells; lysis buffer 150 mM NaCl, 25 mM Tris-HCl, 0.5% NP-40.
Test [2] concerns the target Flag-tagged truncated HDAC1, H1 region (aa 1-321) (human) (UniProt Q13547). The description is as above.
Test [3] concerns the target Flag-tagged truncated HDAC1, H4 region (aa 170-321) (human) (UniProt Q13547). Described as above.
Test [4] has as its target Flag-tagged truncated HDAC1, H5 region (aa 183-321) (human) (UniProt Q13547). The description is as above.
In test [5] the target is T1, Flag-tagged PFKL (liver-type phosphofructokinase), expressed in TFK1 cells (human) (UniProt P17858).
T1 sequence: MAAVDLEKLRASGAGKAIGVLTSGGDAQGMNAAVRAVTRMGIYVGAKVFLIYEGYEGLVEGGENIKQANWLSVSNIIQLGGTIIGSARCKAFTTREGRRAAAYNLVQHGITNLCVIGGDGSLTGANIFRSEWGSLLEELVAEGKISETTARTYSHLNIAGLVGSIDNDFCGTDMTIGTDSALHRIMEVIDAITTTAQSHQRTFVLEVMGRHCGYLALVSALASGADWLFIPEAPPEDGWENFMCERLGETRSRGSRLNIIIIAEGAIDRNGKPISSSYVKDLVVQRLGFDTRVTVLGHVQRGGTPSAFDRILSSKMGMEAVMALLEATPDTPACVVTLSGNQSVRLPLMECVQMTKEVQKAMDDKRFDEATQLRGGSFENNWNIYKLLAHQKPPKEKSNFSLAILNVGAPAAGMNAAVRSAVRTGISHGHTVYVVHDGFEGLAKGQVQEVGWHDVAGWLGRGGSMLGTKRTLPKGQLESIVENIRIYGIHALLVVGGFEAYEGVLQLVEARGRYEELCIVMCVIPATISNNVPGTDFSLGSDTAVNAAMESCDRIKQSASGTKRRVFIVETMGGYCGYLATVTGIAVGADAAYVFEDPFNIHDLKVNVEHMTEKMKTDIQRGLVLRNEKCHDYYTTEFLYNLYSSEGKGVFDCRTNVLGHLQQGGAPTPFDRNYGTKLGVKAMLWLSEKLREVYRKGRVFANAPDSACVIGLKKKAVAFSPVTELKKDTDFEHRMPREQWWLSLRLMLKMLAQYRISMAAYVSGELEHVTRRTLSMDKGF
Briefly: co-IP; Flag-tagged PFKL in TFK1 cells, blots for zinc-dependent HDACs; lysis buffer 150 mM NaCl, 25 mM Tris-HCl, 0.5% NP-40; anti-FLAG-M2 magnetic beads.

Test [6] deals with T2, PFKL, endogenous in TFK1 cells (human (endogenous in TFK1)) (UniProt P17858).
T2 sequence: T1 sequence
Briefly: co-IP; endogenous PFKL and class I HDACs in TFK1 whole-cell lysates and nuclear lysates.

These are yes or no findings as the source states them, for the method shown. In cells and extracts the contact can be indirect. Some entries that bind do so weakly or less than the wild type. For part of these data: Sequences can lack the tags named with a protein.

B1: MYC-tagged PFKL, full length, wild type (enzyme, UniProt P17858 1-780)
chain: T1 sequence
B1: the binding result in test [1] is “binds”; in test [2], “binds”; in test [3], “binds”; in test [4] it was “no binding”.

B2: HDAC8, endogenous in TFK1 cells (enzyme, UniProt Q9BY41 1-377)
chain: MEEPEEPADSGQSLVPVYIYSPEYVSMCDSLAKIPKRASMVHSLIEAYALHKQMRIVKPKVASMEEMATFHTDAYLQHLQKVSQEGDDDHPDSIEYGLGYDCPATEGIFDYAAAIGGATITAAQCLIDGMCKVAINWSGGWHHAKKDEASGFCYLNDAVLGILRLRRKFERILYVDLDLHHGDGVEDAFSFTSKVMTVSLHKFSPGFFPGTGDVSDVGLGKGRYYSVNVPIQDGIQDEKYYQICESVLKEVYQAFNPKAVVLQLGADTIAGDPMCSFNMTPVGIGKCLKYILQWQLATLILGGGGYNLANTARCWTYLTGVILGKTLSSEIPDHEFFTAYGPDYVLEITPSCRPDRNEPHRIQQILNYIKGNLKHVV
B2: the binding result in test [5] and in test [6] was “binds” in each case.
